Measurements: the supplement of paper PMC10849652
This is one part of the list.

Chains of the proteins cited; added tags and fusions are not shown. Lines headed by an entry give the natural chain unless they say otherwise; changes in a name come on top.
UniProt Q9NUQ2: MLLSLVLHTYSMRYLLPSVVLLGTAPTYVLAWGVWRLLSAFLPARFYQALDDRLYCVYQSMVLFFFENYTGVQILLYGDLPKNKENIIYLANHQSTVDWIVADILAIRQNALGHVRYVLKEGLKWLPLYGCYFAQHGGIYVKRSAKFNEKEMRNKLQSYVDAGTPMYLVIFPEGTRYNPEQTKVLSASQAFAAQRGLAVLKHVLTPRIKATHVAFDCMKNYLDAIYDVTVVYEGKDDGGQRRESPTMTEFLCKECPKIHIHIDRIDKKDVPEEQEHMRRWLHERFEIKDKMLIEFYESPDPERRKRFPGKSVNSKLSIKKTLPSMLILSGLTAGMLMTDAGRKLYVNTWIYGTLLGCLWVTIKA
UniProt Q9GZN1, whole entry, looked up: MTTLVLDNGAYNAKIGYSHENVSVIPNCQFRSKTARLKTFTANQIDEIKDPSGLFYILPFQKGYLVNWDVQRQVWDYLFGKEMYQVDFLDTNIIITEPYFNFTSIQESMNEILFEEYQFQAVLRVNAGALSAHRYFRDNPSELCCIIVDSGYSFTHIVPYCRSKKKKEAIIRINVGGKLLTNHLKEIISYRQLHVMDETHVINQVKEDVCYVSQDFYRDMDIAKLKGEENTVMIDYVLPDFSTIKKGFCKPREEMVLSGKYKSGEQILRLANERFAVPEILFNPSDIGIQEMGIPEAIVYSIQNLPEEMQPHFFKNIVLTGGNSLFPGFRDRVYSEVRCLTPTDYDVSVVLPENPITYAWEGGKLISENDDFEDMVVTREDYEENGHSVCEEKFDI
UniProt P11766: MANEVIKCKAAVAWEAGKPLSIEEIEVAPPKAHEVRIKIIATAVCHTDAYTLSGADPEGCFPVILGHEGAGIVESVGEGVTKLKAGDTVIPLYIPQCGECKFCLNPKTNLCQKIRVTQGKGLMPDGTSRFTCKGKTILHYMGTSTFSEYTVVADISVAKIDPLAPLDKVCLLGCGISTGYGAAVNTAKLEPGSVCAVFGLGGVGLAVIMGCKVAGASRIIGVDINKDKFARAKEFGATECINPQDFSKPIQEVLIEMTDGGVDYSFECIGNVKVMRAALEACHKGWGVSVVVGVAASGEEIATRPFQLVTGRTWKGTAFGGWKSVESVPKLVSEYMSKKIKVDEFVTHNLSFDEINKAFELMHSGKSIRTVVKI
UniProt Q9UEY8: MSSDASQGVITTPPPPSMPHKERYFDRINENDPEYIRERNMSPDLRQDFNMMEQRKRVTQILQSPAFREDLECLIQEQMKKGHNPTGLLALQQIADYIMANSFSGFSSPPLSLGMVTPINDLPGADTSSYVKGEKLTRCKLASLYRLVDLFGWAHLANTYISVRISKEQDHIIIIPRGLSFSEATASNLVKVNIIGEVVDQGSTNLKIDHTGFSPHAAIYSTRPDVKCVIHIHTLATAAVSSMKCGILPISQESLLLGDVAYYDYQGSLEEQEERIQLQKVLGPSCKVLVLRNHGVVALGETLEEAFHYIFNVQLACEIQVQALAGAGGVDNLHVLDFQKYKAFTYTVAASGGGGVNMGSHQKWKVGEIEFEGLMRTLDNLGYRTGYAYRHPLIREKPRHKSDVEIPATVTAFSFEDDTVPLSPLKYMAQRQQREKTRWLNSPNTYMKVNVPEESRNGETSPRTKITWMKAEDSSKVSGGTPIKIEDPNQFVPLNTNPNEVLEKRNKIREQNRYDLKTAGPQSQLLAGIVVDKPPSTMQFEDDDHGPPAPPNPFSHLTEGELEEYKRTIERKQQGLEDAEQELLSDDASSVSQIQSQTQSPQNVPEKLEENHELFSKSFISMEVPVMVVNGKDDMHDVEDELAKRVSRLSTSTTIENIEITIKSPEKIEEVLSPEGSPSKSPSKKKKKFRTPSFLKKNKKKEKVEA
UniProt Q9NZ32, whole entry, looked up: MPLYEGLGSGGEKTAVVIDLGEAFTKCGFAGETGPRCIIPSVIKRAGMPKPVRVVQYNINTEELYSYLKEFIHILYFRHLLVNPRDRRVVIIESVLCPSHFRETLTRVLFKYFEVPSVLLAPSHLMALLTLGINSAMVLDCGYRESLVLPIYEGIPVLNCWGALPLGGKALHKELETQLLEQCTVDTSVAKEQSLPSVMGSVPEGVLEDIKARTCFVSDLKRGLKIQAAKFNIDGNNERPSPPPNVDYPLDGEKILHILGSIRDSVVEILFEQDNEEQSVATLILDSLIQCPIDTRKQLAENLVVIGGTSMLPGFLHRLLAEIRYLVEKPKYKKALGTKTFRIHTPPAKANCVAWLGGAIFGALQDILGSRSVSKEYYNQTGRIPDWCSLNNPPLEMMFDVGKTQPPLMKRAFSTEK
UniProt Q96EY9: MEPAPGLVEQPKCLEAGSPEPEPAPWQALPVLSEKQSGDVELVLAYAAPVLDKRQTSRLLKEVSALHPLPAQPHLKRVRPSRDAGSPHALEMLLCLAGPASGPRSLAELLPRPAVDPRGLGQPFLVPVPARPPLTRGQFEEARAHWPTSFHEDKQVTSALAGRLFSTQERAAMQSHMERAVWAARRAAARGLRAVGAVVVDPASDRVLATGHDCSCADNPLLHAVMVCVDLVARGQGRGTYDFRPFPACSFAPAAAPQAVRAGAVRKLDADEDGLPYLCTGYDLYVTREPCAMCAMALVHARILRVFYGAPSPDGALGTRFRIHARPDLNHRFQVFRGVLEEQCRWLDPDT
UniProt P24666: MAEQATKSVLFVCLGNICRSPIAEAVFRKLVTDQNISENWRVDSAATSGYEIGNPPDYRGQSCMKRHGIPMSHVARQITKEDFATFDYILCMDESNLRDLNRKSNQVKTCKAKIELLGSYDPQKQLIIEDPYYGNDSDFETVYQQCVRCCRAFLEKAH
UniProt O00468: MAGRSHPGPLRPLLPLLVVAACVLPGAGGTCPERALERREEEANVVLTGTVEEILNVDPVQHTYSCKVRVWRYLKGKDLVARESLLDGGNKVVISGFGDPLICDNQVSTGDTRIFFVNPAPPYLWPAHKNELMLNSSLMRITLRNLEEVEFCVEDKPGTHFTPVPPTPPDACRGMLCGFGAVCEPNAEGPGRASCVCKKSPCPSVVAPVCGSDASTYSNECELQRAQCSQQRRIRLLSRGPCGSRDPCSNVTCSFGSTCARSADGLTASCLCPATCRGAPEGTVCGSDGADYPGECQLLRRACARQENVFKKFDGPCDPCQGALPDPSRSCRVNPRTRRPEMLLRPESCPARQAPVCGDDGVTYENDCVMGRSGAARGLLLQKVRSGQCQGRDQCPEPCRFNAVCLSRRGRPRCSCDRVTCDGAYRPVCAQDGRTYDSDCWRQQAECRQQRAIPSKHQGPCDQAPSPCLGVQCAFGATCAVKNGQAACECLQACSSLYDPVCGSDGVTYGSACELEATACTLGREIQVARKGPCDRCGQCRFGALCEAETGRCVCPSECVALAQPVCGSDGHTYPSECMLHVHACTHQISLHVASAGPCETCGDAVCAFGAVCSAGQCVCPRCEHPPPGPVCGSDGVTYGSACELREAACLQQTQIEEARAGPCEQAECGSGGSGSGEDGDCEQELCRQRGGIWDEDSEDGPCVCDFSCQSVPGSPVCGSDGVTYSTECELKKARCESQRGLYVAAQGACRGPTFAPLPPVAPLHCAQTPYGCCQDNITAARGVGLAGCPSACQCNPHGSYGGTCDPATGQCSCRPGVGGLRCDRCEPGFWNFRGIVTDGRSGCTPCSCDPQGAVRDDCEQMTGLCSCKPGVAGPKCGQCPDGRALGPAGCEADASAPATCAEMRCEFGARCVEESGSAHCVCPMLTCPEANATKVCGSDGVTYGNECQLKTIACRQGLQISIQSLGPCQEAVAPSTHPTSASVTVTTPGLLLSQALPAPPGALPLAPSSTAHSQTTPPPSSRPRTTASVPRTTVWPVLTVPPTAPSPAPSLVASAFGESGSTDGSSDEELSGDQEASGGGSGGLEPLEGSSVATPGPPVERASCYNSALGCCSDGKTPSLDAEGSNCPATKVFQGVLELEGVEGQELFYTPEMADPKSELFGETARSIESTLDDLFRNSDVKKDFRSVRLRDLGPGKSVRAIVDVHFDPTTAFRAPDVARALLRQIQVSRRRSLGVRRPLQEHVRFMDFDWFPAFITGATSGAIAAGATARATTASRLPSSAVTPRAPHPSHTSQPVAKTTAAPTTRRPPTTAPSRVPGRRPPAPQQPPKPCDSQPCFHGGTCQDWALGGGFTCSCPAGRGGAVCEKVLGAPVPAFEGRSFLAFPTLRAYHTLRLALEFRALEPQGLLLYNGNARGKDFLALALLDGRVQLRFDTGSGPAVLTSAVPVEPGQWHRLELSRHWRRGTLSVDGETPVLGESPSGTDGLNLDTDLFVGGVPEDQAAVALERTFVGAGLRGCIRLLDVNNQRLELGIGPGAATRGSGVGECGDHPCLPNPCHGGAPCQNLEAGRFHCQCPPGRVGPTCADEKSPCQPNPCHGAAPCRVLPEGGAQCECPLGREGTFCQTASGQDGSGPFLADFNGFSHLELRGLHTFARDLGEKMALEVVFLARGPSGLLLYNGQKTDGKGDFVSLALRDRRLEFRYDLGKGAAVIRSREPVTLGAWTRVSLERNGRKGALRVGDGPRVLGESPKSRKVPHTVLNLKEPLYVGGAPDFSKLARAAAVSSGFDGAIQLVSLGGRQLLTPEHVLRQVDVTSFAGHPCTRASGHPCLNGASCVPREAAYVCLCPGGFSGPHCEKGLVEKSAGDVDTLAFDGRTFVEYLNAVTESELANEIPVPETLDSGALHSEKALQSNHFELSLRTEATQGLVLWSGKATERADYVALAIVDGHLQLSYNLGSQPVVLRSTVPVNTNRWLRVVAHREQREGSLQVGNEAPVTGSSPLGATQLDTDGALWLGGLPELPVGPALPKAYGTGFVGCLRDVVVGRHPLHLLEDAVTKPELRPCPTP
UniProt Q9Y4W6: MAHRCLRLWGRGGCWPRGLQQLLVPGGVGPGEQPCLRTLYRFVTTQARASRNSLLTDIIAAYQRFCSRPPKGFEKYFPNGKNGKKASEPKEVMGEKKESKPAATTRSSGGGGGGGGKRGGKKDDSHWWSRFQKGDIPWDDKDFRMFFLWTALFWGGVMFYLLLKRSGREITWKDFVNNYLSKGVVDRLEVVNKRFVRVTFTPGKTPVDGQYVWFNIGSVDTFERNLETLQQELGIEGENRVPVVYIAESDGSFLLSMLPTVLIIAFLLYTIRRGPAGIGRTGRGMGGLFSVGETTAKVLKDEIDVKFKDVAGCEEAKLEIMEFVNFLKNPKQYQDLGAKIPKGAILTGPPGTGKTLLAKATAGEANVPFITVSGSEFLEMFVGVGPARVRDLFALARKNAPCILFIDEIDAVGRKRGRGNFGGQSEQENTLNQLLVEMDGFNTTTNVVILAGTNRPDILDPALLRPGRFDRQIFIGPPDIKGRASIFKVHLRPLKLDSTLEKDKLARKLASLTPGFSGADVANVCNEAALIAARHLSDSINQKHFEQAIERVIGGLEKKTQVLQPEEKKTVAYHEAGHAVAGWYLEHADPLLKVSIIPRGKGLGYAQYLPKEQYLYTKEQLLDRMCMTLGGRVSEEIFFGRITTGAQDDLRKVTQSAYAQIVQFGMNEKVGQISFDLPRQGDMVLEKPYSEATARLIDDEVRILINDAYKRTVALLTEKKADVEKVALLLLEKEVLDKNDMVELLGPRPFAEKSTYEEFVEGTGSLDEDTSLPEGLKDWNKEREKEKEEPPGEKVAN
UniProt P00813: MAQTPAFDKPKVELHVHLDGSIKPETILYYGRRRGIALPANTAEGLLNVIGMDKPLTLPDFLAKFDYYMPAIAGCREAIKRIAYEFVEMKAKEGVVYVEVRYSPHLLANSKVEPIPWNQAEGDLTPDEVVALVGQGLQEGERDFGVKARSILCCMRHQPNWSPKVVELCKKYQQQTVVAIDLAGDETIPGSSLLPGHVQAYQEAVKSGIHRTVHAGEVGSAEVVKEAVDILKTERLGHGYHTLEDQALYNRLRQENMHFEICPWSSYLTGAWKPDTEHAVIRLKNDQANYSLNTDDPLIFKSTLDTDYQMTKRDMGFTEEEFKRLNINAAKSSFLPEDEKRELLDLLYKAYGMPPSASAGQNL
UniProt Q99943: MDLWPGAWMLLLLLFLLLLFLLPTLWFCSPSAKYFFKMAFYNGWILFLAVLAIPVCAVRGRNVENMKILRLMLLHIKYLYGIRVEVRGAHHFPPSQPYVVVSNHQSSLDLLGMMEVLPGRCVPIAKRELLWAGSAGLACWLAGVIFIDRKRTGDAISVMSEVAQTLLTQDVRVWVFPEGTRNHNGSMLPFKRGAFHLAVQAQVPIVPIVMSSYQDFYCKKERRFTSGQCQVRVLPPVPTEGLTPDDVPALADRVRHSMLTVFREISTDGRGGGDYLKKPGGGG

Columns and labels:
Assay in all cases: log2 fold change, soluble protein after heating vs DMSO (PISA); higher = thermal stabilisation; K562 lysate, 10 uM; active = over 0.2 and 3.5 SD of the protein, either way, in both replicates (recomputed)
[1] = compound: C#Cc1cccc(Nc2ncnc3cc(OCCOC)c(OCCOC)cc23)c1 [erlotinib]
Method in brief: (§1)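 Quantification was by TMTpro 16plex LC-MS/MS with equalised channel sums, applied to the supernatant after 21,000xg for 90 min. Samples were crude K562 extract at 1 mg/mL protein in PBS pH 7.4 with 1 mM MgCl2, treated with 10 μM compound for 30 min, heated for 3 min across 48°C-58°C, pooled and brought to 0.5% NP-40 at 4°C. Values are log-two fold changes in thermal stability relative to solvent controls, from duplicates.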

[2] = compound: C/C(=N\NC(=O)C1=CC(=CC=C1)S(=O)(=O)N2CCOCC2)/C3=C(C=CC(=C3)Cl)O
Method in brief: as §1

[3] = compound: C1=CC(=CC=C1C2=NC3=C(N2)C=C(C=C3)C(=O)N)OC4=CC=C(C=C4)Cl
Method in brief: as §1

[4] = compound: C1=CC2=C(C=CC(=C2)/C=C\3/C(=O)NC(=NCC4=CC=CS4)S3)N=C1
Method in brief: as §1

[5] = compound: C1=CC2=NC=CN=C2C=C1/C=C/3\C(=O)NC(=O)S3
Method in brief: as §1

[6] = compound: C1=CC=C(C=C1)C2=NC(=C(N2)C3=CC=NC=C3)C4=CC(=C(C=C4)Cl)O
Method in brief: as §1

[7] = compound: C1=CC=C2C(=C1)C3=NNC4=CC=CC(=C43)C2=O
Method in brief: as §1

[8] = compound: C1CCN(C1)C(=O)NC2=CC=CC(=C2)NC3=NC=C(C(=N3)NCCC4=CN=CN4)Br
Method in brief: as §1

[9] = compound: C1CN(CCC1(CC2=CC=C(C=C2)Cl)N)C3=NC=NC4=C3C=CN4
Method in brief: as §1

[10] = compound: C1COCCN1CCN2C3=CC=CC=C3N=C2NC(=O)C4=CC(=CC=C4)[N+](=O)[O-] [IRAK-1-4 Inhibitor I]
Method in brief: as §1

[11] = compound: C=CC(=O)N1CCC[C@@H](n2nc(-c3ccc(Oc4ccccc4)cc3)c3c(N)ncnc32)C1 [ibrutinib]
Method in brief: as §1

[12] = compound: CC(=O)c1cnc2ccc(-c3cc(Cl)c(O)c(Cl)c3)nc2c1N[C@H]1CC[C@H](CN(C)C)CC1
Method in brief: as §1

[13] = compound: CC(C)(C)Cn1c(N)nc2ccc(-c3[nH]c(C(C)(C)C)nc3-c3ccc(F)cc3)nc21 [ralimetinib]
Method in brief: as §1

[14] = compound: CC(C)(O)CC(=O)NCCn1ccc2ncnc(Nc3ccc(Oc4cccc(C(F)(F)F)c4)c(Cl)c3)c21
Method in brief: as §1

[15] = compound: CC(C)C1=C2N=C(C=C(N2N=C1)NCC3=CC=CC=C3)NCCCCCCN
Method in brief: as §1

[16] = compound: CC1=C(C(CC(=O)N1)C2=CC=C(C=C2)C(F)(F)F)C(=O)NC3=C(C=C4C(=C3)C=NN4)F
Method in brief: as §1

[17] = compound: CC1=C(C2=C(C=C1)C(=O)C3=CC=CC=C3N2CCCN)C
Method in brief: as §1

[18] = compound: CC1=C(C=C(C=C1)NC(=O)C2=CC(=CC=C2)C(C)(C)C#N)NC3=CC4=C(C=C3)N=CN(C4=O)C
Method in brief: as §1

[19] = compound: CC1=C(C=C(C=C1)NC(=O)C2=CC(=CC=C2)N(C)C)NC(=O)C3=CC=C(C=C3)O
Method in brief: as §1

[20] = compound: CC1=CC=C(C=C1)SC2=C3C=C(SC3=CN=C2)C(=O)N
Method in brief: as §1

Measured: log2 fold change

AKAP9 (UniProt Q99996)
inactive: [1] -0.019 | [2] -0.037 | [3] 0.009 | [4] -0.038 | [5] 0.024 | [6] 0.019 | [7] -0.083 | [8] -0.014 | [9] -0.006 | [10] -0.018 | [11] 0.003 | [12] -0.114 | [13] 0.022 | [14] -0.042 | [15] 0.009 | [16] 0.009 | [17] 0.001 | [18] -0.006 | [19] 0.011 | [20] -0.122

ACTB, A0A2R8Y793
inactive: [1] 0.034 | [2] 0.019 | [3] 0.017 | [4] -0.006 | [5] -0.002 | [6] 0.008 | [7] -0.035 | [8] -0.008 | [9] 0.023 | [10] 0.013 | [11] -0.003 | [12] 0.006 | [13] 0.03 | [14] 0.008 | [15] 0.036 | [16] -0.004 | [17] 0.007 | [18] 0.001 | [19] 0.017 | [20] 0.013

ACTN1 isoform 3 (UniProt P12814)
inactive: [1] -0.02 | [2] 0.002 | [3] 0.016 | [4] -0.01 | [5] -0.004 | [6] -0.018 | [7] 0.026 | [8] 0.001 | [9] 0.002 | [10] 0.003 | [11] 0.004 | [12] 0.014 | [13] 0.008 | [14] -0.018 | [15] -0.012 | [16] -0.009 | [17] 0.018 | [18] 0.016 | [19] -0.011 | [20] 0.006

AGPAT5 (UniProt Q9NUQ2)
inactive: [1] 0.017 | [2] 0.072 | [3] -0.147 | [4] -0.001 | [5] -0.01 | [6] -0.013 | [7] -0.065 | [8] 0.01 | [9] -0.008 | [10] 0.006 | [11] -0.04 | [12] -0.046 | [13] -0.054 | [14] -0.008 | [15] 0.018 | [16] 0.015 | [17] 0.048 | [18] -0.044 | [19] 0.051 | [20] 0.02

ACTR6 (UniProt Q9GZN1)
inactive: [1] -0.061 | [2] 0.003 | [3] -0.01 | [4] -0.017 | [5] 0.008 | [6] 0.005 | [7] -0.029 | [8] -0.024 | [9] -0.061 | [10] 0.003 | [11] 0.087 | [12] 0.016 | [13] -0.01 | [14] -0.073 | [15] -0.036 | [16] -0.192 | [17] -0.069 | [18] 0.021 | [19] 0.058 | [20] -0.027

Retrieved one by one from the list above (two):
ACTN1 isoform 3 (UniProt P12814)
inactive: [1] -0.02 | [2] 0.002 | [3] 0.016 | [4] -0.01 | [5] -0.004 | [6] -0.018 | [7] 0.026 | [8] 0.001 | [9] 0.002 | [10] 0.003 | [11] 0.004 | [12] 0.014 | [13] 0.008 | [14] -0.018 | [15] -0.012 | [16] -0.009 | [17] 0.018 | [18] 0.016 | [19] -0.011 | [20] 0.006

ACTR6 (UniProt Q9GZN1)
inactive: [1] -0.061 | [2] 0.003 | [3] -0.01 | [4] -0.017 | [5] 0.008 | [6] 0.005 | [7] -0.029 | [8] -0.024 | [9] -0.061 | [10] 0.003 | [11] 0.087 | [12] 0.016 | [13] -0.01 | [14] -0.073 | [15] -0.036 | [16] -0.192 | [17] -0.069 | [18] 0.021 | [19] 0.058 | [20] -0.027

Going on with the list.

ADH5 (UniProt P11766)
inactive: [1] -0.006 | [2] 0.033 | [3] -0.007 | [4] -0.016 | [5] 0.063 | [6] 0.026 | [7] 0.009 | [8] 0.011 | [9] -0.024 | [10] -0.005 | [11] -0.019 | [12] 0.004 | [13] 0.004 | [14] 0.001 | [15] -0.008 | [16] -0.014 | [17] 0.002 | [18] 0.015 | [19] -0.003 | [20] 0.001

ADD3 (UniProt Q9UEY8)
inactive: [1] -0.013 | [2] -0.01 | [3] 0.054 | [4] 0.013 | [5] -0.001 | [6] 0.015 | [7] -0.036 | [8] -0.007 | [9] -0.004 | [10] 0.033 | [11] 0 | [12] 0.009 | [13] 0.004 | [14] -0.049 | [15] -0.015 | [16] -0.002 | [17] 0.009 | [18] -0.005 | [19] -0.009 | [20] -0.014

ACTR10 (UniProt Q9NZ32)
inactive: [1] -0.007 | [2] 0.025 | [3] 0.043 | [4] -0.027 | [5] -0.011 | [6] 0.052 | [7] -0.016 | [8] -0.008 | [9] -0.002 | [10] 0.015 | [11] 0.036 | [12] -0.019 | [13] -0.005 | [14] -0.007 | [15] -0.011 | [16] -0.014 | [17] -0.021 | [18] 0.085 | [19] 0.083 | [20] -0.022

ADAT3 (UniProt Q96EY9)
inactive: [1] -0.029 | [2] 0.013 | [3] -0.024 | [4] -0.041 | [5] 0.009 | [6] 0.019 | [7] -0.059 | [8] 0.136 | [9] -0.022 | [10] 0.045 | [11] 0.033 | [12] 0.059 | [13] 0.058 | [14] -0.017 | [15] -0.031 | [16] 0.006 | [17] -0.015 | [18] -0.015 | [19] -0.031 | [20] -0.009

ACP1 (UniProt P24666)
inactive: [1] 0.044 | [2] 0.081 | [3] -0.008 | [4] -0.023 | [5] 0.035 | [6] 0.041 | [7] 0.033 | [8] 0.023 | [9] 0.028 | [10] -0.031 | [11] -0.002 | [12] 0.047 | [13] -0.021 | [14] -0.009 | [15] 0.009 | [16] -0.063 | [17] 0 | [18] 0.027 | [19] 0.064 | [20] -0.016

AGRN (UniProt O00468)
inactive: [1] -0.083 | [2] 0.376 | [3] 0.008 | [4] 0.067 | [5] -0.046 | [6] 0.037 | [7] -0.194 | [8] -0.041 | [9] 0.062 | [10] 0.09 | [11] 0.123 | [12] 0.059 | [13] -0.005 | [14] -0.09 | [15] -0.017 | [16] -0.006 | [17] 0.037 | [18] 0.03 | [19] 0.045 | [20] -0.066

AK2 (UniProt P54819)
inactive: [1] -0.011 | [2] -0.052 | [3] 0.035 | [4] -0.002 | [5] 0.002 | [6] 0.016 | [7] 0.014 | [8] -0.008 | [9] -0.002 | [10] 0.005 | [11] 0.054 | [12] -0.022 | [13] -0.013 | [14] 0.027 | [15] 0.018 | [16] -0.018 | [17] 0.003 | [18] -0.018 | [19] -0.031 | [20] -0.024

AFG3L2 (UniProt Q9Y4W6)
inactive: [1] 0.029 | [2] -0.005 | [3] 0.036 | [4] 0.015 | [5] -0.022 | [6] -0.023 | [7] -0.018 | [8] -0.02 | [9] 0.036 | [10] 0.002 | [11] 0.002 | [12] 0.011 | [13] -0.041 | [14] -0.102 | [15] -0.026 | [16] -0.001 | [17] 0.042 | [18] -0.005 | [19] 0.015 | [20] 0

ADA (UniProt P00813)
inactive: [1] -0.009 | [2] -0.005 | [3] -0.007 | [4] -0.005 | [5] -0.01 | [6] 0.012 | [7] 0.001 | [8] -0.008 | [9] 0.01 | [10] 0.044 | [11] 0.001 | [12] 0.008 | [13] 0.003 | [14] -0.065 | [15] 0.044 | [16] -0.023 | [17] 0.027 | [18] 0.044 | [19] -0.021 | [20] -0.024

AGPAT1 (UniProt Q99943)
inactive: [1] 0.012 | [2] 0.027 | [3] -0.145 | [4] 0.05 | [5] 0.028 | [6] -0.023 | [7] -0.01 | [8] -0.019 | [9] 0.01 | [10] 0.036 | [11] -0.121 | [12] -0.05 | [13] 0.027 | [14] -0.051 | [15] -0.026 | [16] 0.06 | [17] 0.012 | [18] 0.02 | [19] 0.043 | [20] 0.042

AKR1B1 (UniProt P15121)
inactive: [1] -0.044 | [2] -0.001 | [3] -0.006 | [4] 0.012 | [5] -0.009 | [6] -0.047 | [7] -0.044 | [8] -0.043 | [9] -0.003 | [10] -0.021 | [11] 0.023 | [12] -0.015 | [13] 0.031 | [14] -0.029 | [15] -0.033 | [16] -0.013 | [17] 0.091 | [18] -0.038 | [19] 0.028 | [20] 0.004
